We go through five molecules from PMC10481574.

Protein sequences, listed by entry. Tags and fused reporters are not part of them. Residues count along the entry.
UniProt P19438, residues 30-455: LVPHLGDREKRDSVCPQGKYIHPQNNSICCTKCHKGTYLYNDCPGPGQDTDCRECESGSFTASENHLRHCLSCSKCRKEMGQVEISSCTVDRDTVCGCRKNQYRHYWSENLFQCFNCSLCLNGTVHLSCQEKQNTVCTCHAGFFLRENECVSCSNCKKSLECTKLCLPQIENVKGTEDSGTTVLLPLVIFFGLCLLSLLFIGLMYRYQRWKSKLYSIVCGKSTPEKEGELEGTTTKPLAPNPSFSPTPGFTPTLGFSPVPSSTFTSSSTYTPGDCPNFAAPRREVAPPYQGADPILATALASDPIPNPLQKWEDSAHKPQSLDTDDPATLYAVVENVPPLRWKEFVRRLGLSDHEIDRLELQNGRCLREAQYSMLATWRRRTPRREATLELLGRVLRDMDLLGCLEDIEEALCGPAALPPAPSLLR
UniProt P20333, residues 23-461: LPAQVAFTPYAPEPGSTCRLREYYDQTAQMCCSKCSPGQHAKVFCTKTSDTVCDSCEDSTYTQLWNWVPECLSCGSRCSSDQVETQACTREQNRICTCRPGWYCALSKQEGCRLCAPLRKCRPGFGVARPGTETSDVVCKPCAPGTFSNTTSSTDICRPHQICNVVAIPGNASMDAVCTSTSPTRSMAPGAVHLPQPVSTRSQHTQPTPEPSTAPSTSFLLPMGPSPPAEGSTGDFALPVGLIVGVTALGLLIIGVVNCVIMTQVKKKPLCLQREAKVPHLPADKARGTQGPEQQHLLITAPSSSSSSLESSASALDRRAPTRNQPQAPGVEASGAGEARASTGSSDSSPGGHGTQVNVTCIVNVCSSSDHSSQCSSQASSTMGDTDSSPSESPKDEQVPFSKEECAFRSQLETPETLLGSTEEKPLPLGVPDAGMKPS

No constants are given. Whether binding was seen depends on the method and setting. In cells and extracts the contact can be indirect. Some entries that bind do so weakly or less than the wild type. Tags and fused reporters may be left off the sequences shown.

In assay [1] the target is HA-tagged TNFR1 (TNF receptor 1, full length) (human) (UniProt P19438). Description: co-IP; HEK293T cells harvested ~24 h after transfection, lysed in cell lysis buffer for Western and IP (Beyotime P0013); lysates precleared with protein A/G-PLUS agarose beads; IP with anti-HA tag or anti-FLAG tag antibody, immunoblot.
Assay [2] addresses HA-tagged TNFR2 (TNF receptor 2, full length) (human) (UniProt P20333). The assay is described as above.
In assay [3] the target is TNFR2-LgBit (LgBit Nano luciferase fused to the carboxy terminus of TNFR2) (human) (UniProt P20333). Nature of the assay: split reporter; NanoBit; cells co-transfected with SmBit-RGS5 and TNFR1-LgBit or TNFR2-LgBit, 384-well plate, Opti-MEM with 4% FBS; incubated with compounds (feshurin, butein) or DMSO for 6 h before the luciferase substrate.
The target in assay [4] is TNFR1-LgBit (LgBit Nano luciferase fused to the carboxy terminus of TNFR1) (human) (UniProt P19438). The assay is described as above.
A further assay addresses HaloTag-TNFR1 (human) (UniProt P19438). Description: FRET or BRET; NanoBRET PPI Starter System (Promega); HEK293T cells co-transfected with RGS5-NanoLuc and HaloTag-TNFR1/TNFR2; 100 nM HaloTag NanoBRET 618 Ligand; BRET ratios normalised to RGS5-NanoLuc with the empty HaloTag vector (pHTC).
In the next assay the target is HaloTag-TNFR2 (human) (UniProt P20333). Described as above.

Turning to SLDKLLQNNYGLASFKSFLKSEFSEENLEFWIACEDYKKIKSPAK (domain or fragment, UniProt O15539 64-108) [RGS5 aa 64-108 (RGS domain fragment)], the binding entry in assay [1] is listed as “binds”.

B1: RGS5-3xFLAG (regulator of G-protein signaling 5, full length, human isoform 1) (protein, UniProt O15539 1-181)
chain: MCKGLAALPHSCLERAKEIKIKLGILLQKPDSVGDLVIPYNEKPEKPAKTQKTSLDEALQWRDSLDKLLQNNYGLASFKSFLKSEFSEENLEFWIACEDYKKIKSPAKMAEKAKQIYEEFIQTEAPKEVNIDHFTKDITMKNLVEPSLSSFDMAQKRIHALMEKDSLPRFVRSEFYQELIK
Consider B1, for which the binding result in assay [2] and in assay [1] was “binds” in each case.

B2: SmBit-RGS5 (SmBit Nano luciferase fused to the amino terminus of RGS5) (protein, UniProt O15539 1-181)
chain: B1 chain
Turning to B2, the binding result in assay [3] and in assay [4] was “binds” in each case.

B3: RGS5-NanoLuc (protein, UniProt O15539 1-181)
chain: B1 chain
B3: the binding entry with HaloTag-TNFR1 (human) and with HaloTag-TNFR2 (human) was “binds” in each case.

B4: RGS5 aa 109-181 (C-RGS5) (domain or fragment, UniProt O15539 109-181)
chain: MAEKAKQIYEEFIQTEAPKEVNIDHFTKDITMKNLVEPSLSSFDMAQKRIHALMEKDSLPRFVRSEFYQELIK
As to B4, the binding entry in assay [2] and in assay [1] was “no binding” each time.
